# Laboratory results as given in PubChem BioAssay AID493014 (National Center for Advancing Translational Sciences (NCATS), 2011).
# The other results are listed elsewhere or left out. These are further read-outs of the screen, such as a control signal, another cell line or another target. No call is given for them. Compounds called inactive in the main read-out are mostly missing here. Words in brackets tell the shape of the fitted curve; partial curves, single points and poor fits give uncertain potencies.
# Assay: qHTS Assay to Find Inhibitors of Chronic Active B-Cell Receptor Signaling
# Conditions: ABC-DLBCL IkBa-CBG/CBR reporter, luminescence ratio (green luciferase fused to IkBa over red control in TMD8 lymphoma cells), 4 h
# In short: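 Compounds up to 46 uM were incubated four hours with TMD8 cells whose green CBG68 luciferase is fused to IkappaBalpha; red CBR luminescence normalised the signal, and concentration-effect curves were fitted to fusion, red and ratio data.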
# [1] = measured here: CBR red luminescence, cell number
# [2] = measured here: IkBa-CBG green luminescence
Structure (SMILES),AC50 [1],AC50 [2]
Cc1cccc(NC(=O)C2CCC(CNC(=O)[C@@H]3Cc4ccccc4CN3)CC2)c1 (some centres undefined),"10 µM [falling, partial curve]",
Cc1cnc(C(=O)NCCc2ccc(Cl)cc2)cn1,"15.8 µM [rising, partial curve, poor fit]",
COc1ccc(/C=N/NC(=O)C(=O)N2CCCCCC2)cc1[N+](=O)[O-],,"15.8 µM [falling, partial curve, poor fit]"
Clc1cccc(-c2nc(-c3ccc(-c4nn[nH]n4)cc3)no2)c1,"29.1 µM [falling, single point]",
O=C(CC(SCCO)c1ccc2c(c1)OCO2)c1ccco1 (centres undefined),"4.11 µM [falling, single point]",
CN(C)CCCn1c2c(c(SCC(=O)Nc3cccc4ccccc34)nc1=O)CCCC2,"16.4 µM [falling, partial curve, poor fit]",
CC(SC1=NCCS1)C(=O)Nc1nnc(-c2ccc(Cl)cc2)s1 (centres undefined),"6.51 µM [rising, partial curve]",
CC1CCCCN1CCNC(=O)c1ccc2c(c1)N(Cc1cccc(Cl)c1)C(=O)c1ccccc1S2=O (centres undefined),"10 µM [falling, partial curve]",
CC1CCc2c(sc3c2C2=NS(=O)(=O)CCN2C=N3)C1 (centres undefined),"6.51 µM [rising, single point]",
O=C(NCCc1cccs1)c1cccs1,"14.1 µM [falling, partial curve]",
Cc1ccc(Nc2nc(C)cs2)cc1,"6.31 µM [rising, single point]","14.1 µM [falling, partial curve, poor fit]"
CCN(CC)c1ccc(/C=N/NC(=O)CCC(=O)NCc2ccccc2)c(O)c1,"20.6 µM [rising, partial curve]",
c1ccc(-c2noc(-c3ccc4c(c3)OCO4)n2)nc1,"4.61 µM [falling, full curve]",
CC(=O)Nc1ccc(C(=O)CCl)cc1,"29.1 µM [falling, single point]",
CN(c1ccccc1)c1ccc(/C=N/NC(=O)CC#N)cc1,"0.58 µM [falling, full curve]",
COc1cccc(/C=C2\Oc3cc(OCC(=O)N4Cc5ccccc5C[C@H]4C(=O)O)ccc3C2=O)c1,"17.8 µM [falling, single point]",
CCS(=O)(=O)c1ncc(Cl)c(C(=O)Nc2ccc(C)cc2)n1,"5.62 µM [falling, full curve]","2.82 µM [rising, full curve, poor fit]"
CCN(CC)c1ccc(-n2c(C)cc(C=O)c2C)cc1,"6.51 µM [rising, single point]",
COc1ccc(C2CC(c3cccs3)=NN2C(=O)CSC2=NCCS2)cc1 (centres undefined),"35.5 µM [falling, single point]",
CC(C)(C)OC(=O)NCCCCCNC(=O)c1[nH]cnc1C(=O)Nc1ccc(Cl)cc1,"29.1 µM [falling, single point]","32.6 µM [rising, partial curve, poor fit]"
CCN(CC)C(=O)C(=O)c1cc(C)n(-c2ccc(F)cc2)c1C,"35.5 µM [falling, single point]",
O=C(COc1ccc(Br)cc1)NNC(=S)NC(=O)c1ccccc1[N+](=O)[O-],"16.4 µM [rising, partial curve]",

# Four structures from above, sorted by length of the SMILES, rising:
Structure (SMILES),AC50 [1],AC50 [2]
CCN(CC)c1ccc(-n2c(C)cc(C=O)c2C)cc1,"6.51 µM [rising, single point]",
O=C(CC(SCCO)c1ccc2c(c1)OCO2)c1ccco1 (centres undefined),"4.11 µM [falling, single point]",
CN(C)CCCn1c2c(c(SCC(=O)Nc3cccc4ccccc34)nc1=O)CCCC2,"16.4 µM [falling, partial curve, poor fit]",
O=C(COc1ccc(Br)cc1)NNC(=S)NC(=O)c1ccccc1[N+](=O)[O-],"16.4 µM [rising, partial curve]",

# Later entries

Structure (SMILES),AC50 [1],AC50 [2]
COc1cccc(/C=N/Nc2ncnc3c2ncn3Cc2ccccc2)c1O,"1.03 µM [falling, partial curve]",
Cc1ccc(C)c2c1cc(C)c1nnc(SCC(=O)c3cccs3)n12,"0.82 µM [rising, full curve, poor fit]",
COc1ccc(C(=O)Nc2cc(C(F)(F)F)ccc2-n2cnc3ccccc32)cc1,"20.6 µM [falling, single point]",
O=[N+]([O-])c1cc(Cl)cc2c1nc(NCCO)c1ccccc12,"20 µM [falling, single point]",
O=C(Nc1ccc(F)cc1)N1CCC(c2nc3c(nnn3Cc3cccc(Cl)c3)c(=O)[nH]2)CC1,"35.5 µM [falling, single point]",
CCOc1cc(/C=C2\COc3ccccc3C2=O)cc(Br)c1OCC(=O)N(C)C,"12.6 µM [falling, partial curve]",
N/C(=N\N=C\c1cccc([N+](=O)[O-])c1)c1nonc1N,"6.31 µM [rising, full curve, poor fit]",
O=C(O)COCc1nc2ccccc2s1,"22.4 µM [rising, single point]",
Cc1c(CNCCC2=CCCCC2)c(C(=O)O)c(C)n1Cc1ccccc1,"6.31 µM [rising, single point]",
O=c1c2cn[nH]c2nc(SCc2cccc(Br)c2)n1-c1ccc(Cl)cc1,"10 µM [falling, partial curve]",
O=C(/C=C/c1ccncc1)c1cc(Cl)ccc1O,"11.2 µM [falling, partial curve]",
Cc1c(C(=O)N2CCCC2)oc2ccc(Br)cc12,"14.1 µM [rising, partial curve]",
Nc1nc2sc3c(c2c(=O)s1)CCCC3,"2.06 µM [rising, single point]",
Cc1cc(NC(=O)Nc2ccc(Cl)cc2)n(-c2ccccc2)n1,"7.94 µM [rising, partial curve, poor fit]",
O=C(CSc1nnc(COc2ccccc2)n1Cc1ccco1)Nc1ccc2c(c1)OCCO2,"8.2 µM [falling, partial curve, poor fit]",
COc1cc(OC)cc(C(=O)Oc2c(CN3CCOCC3)cc(Cl)c3cccnc23)c1,"3.98 µM [falling, full curve, poor fit]","3.55 µM [falling, partial curve]"
COc1cc(C=O)ccc1OCc1ccc(Cl)nc1,"35.5 µM [falling, single point]",
N#Cc1c(CSCC(=O)O)cc(=O)n2c1[nH]c1ccccc12,"2.51 µM [rising, partial curve, poor fit]",
COc1ccc(OC)c(CNC(=O)C2CCC(=O)N2C(C)C)c1 (centres undefined),"35.5 µM [rising, single point]",
O=C(CCN1C(=O)S/C(=C\c2ccc(F)cc2)C1=O)Nc1ccc(O)cc1C(=O)O,"14.1 µM [falling, partial curve, poor fit]",
Cc1cccc(OCCCCn2c(CO)nc3ccccc32)c1,"3.16 µM [rising, full curve]",
O=S(=O)(/N=C(/Nc1nc2ccccc2s1)c1ccccc1)c1ccccc1,"14.6 µM [falling, single point]",

Structure (SMILES),AC50 [1],AC50 [2]
COc1ccc2c(c1)c(CC(=O)OCC(=O)N(C)C)c(C)n2C(=O)c1ccc(Cl)cc1,"17.8 µM [falling, single point]",
Cc1ccc(/C=C/C(=O)Nn2cnnc2)cc1,"11.6 µM [falling, single point]",
FC(F)Oc1ccc(C2N=C(c3ccccc3)NO2)cc1 (centres undefined),"0.112 µM [rising, full curve, poor fit]",
O=C1c2ccc(Oc3ccc([N+](=O)[O-])cc3)cc2C(=O)N1CCCO,"35.5 µM [rising, single point]",
CCOc1cccc(N2C(=O)CC(NCc3ccc(S(N)(=O)=O)cc3)C2=O)c1 (centres undefined),"6.31 µM [falling, single point]",
CS(=O)(=O)c1ccc(C(=O)OCC(=O)c2ccc(Cl)s2)cc1,"3.26 µM [rising, full curve, poor fit]",
Cc1ccc(S(=O)(=O)Oc2ccccc2/C=N/N=C(N)N)cc1,"35.5 µM [falling, single point]",
O=C(CSc1nnc(Cc2cccs2)n1CCc1ccccc1)N1CCCc2ccccc21,"23.1 µM [falling, partial curve]",
COC(=O)c1sccc1NC(=O)Nc1ccc(C)cc1C,"15.8 µM [falling, partial curve, poor fit]",
COc1cccc(CNc2nc3nc(C)cc(C)n3n2)c1,"11.6 µM [falling, partial curve]",
COc1ccc(CN2CCNC(=O)C2CC(=O)N(C)CC2CCOCC2)cc1C (centres undefined),"0.794 µM [rising, full curve, poor fit]",
COc1cccc(NC(=O)CCN2C(=O)c3cccc([N+](=O)[O-])c3C2=O)c1,"35.5 µM [falling, single point]",
O=C(NCCCN1CCOCC1)c1cc(-c2ccccc2F)no1,"15.8 µM [falling, single point]",
CC1C/C(=C/c2ccco2)C(=O)/C(=C/c2ccco2)C1 (centres undefined),"16.4 µM [falling, partial curve, poor fit]","23.1 µM [falling, partial curve, poor fit]"
Cn1c(=O)cc(OCC(=O)NCc2cccs2)c2ccccc21,"15.8 µM [falling, partial curve, poor fit]",
Oc1ccc(Cl)cc1CNc1ccc(Br)cn1,"0.013 µM [rising, full curve, poor fit]",
CCCN(CCC)S(=O)(=O)c1ccc(C(=O)N2CCOCC2)cc1,"0.0326 µM [rising, full curve, poor fit]",
COc1cccc(C2CC(c3c(Cl)cccc3Cl)n3nc(N)nc3N2)c1 (centres undefined),"14.6 µM [rising, partial curve, poor fit]",
COc1ccc(CCN2CC(C(=O)NCCc3cn[nH]c3)CCC2=O)cc1 (centres undefined),"6.31 µM [rising, full curve, poor fit]",
CCCN(CCC)S(=O)(=O)c1ccc(NC(=O)Cc2cccs2)cc1,"0.206 µM [rising, full curve, poor fit]",
